# The list shows a part of the results.
# By UniProt entry, the sequences of proteins in these tests, tags left out.
# UniProt Q0JBA9, entry or part of it: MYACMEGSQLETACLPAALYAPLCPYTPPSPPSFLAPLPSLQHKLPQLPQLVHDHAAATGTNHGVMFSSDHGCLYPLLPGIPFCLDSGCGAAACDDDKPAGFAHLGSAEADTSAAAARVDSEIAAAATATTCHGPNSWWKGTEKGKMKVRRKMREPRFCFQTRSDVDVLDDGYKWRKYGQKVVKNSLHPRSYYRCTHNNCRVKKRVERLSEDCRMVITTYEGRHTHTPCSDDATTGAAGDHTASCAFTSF
# Molecular target: OsWRKY34 (Oryza sativa, UniProt Q0JBA9 1-250)
# Test: protein-binding microarray (RPBM); PBS, 2% BSA, 51.3 ng/ul salmon testes DNA, 50 uM zinc acetate, 200 nM TF, 25 C, 1 h; high values mean tight binding
# Conditions: protein: recombinant; tags: N-terminal polyhistidine and DsRed monomer fusion (pET32a); label: CyDye5-dUTP incorporated in the synthesized complementary strand; 3' TTTTT single-stranded linker to array surface; dsDNA, one strand shown
# Outline: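 Binding signal is reported as fluorescence intensity per feature (arbitrary units) from an Axon 4000B scanner. Incubation used 200 nM of each Ni–NTA-purified, N-terminally polyhistidine- and DsRed-fused transcription factor from E. coli BL21-CodonPlus on a double-stranded custom Agilent array for 1 h at 25 °C, with 50 µM zinc acetate in the buffer, followed by washing.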
row,Sequence,binding signal
1,AAACATTTCCGGGTTCCCTCCTCTTCTCTTCCCGCGAAAACGGAGTCACCTAGTGCAG,9130 fluorescence intensity (a.u.)
2,CGAAAACGCATCCATTCATCAACACACATCAACCTGACAACGGAGTCACCTAGTGCAG,9130 fluorescence intensity (a.u.)
3,CGCGTCACCTGCTTGGCGCAGTACTTCTGCTACACTCTCTCGGAGTCACCTAGTGCAG,8470 fluorescence intensity (a.u.)
4,AGGTTGAATATATCATGCCTCTGCTCAACTTCTGGTATTTCGGAGTCACCTAGTGCAG,8060 fluorescence intensity (a.u.)
5,CACATGTTATTTACTCCCACGCTCGATCTTCTTTTTTTTCCGGAGTCACCTAGTGCAG,15100 fluorescence intensity (a.u.)
6,CTATCCACCGTTCCATAGCACCAATGGGCAAGCAAGCTACCGGAGTCACCTAGTGCAG,8600 fluorescence intensity (a.u.)
7,ACAGTTTATGAATCCTTTTTGTTTTACATTTTCTTCAGCTCGGAGTCACCTAGTGCAG,11100 fluorescence intensity (a.u.)
8,AGTTAGAATCATTGTCCAAAAGTATTTATATCTTGTTCCACGGAGTCACCTAGTGCAG,8180 fluorescence intensity (a.u.)
9,TCCCACCTGCCTCGCTACCTCCGACTTCGCCTCGTCCCCACGGAGTCACCTAGTGCAG,8340 fluorescence intensity (a.u.)
10,ATTTTTATTTTCCACAACTAATTGTCCTTTGTTGAATTTCCGGAGTCACCTAGTGCAG,13900 fluorescence intensity (a.u.)
11,CCCAAAGGCCCATGACAGGTGATGCAGCATCTTGTTTCTTCGGAGTCACCTAGTGCAG,8690 fluorescence intensity (a.u.)
12,ACATAGACACAATTTCACCATTTCTAATCGGACGGCGCGCCGGAGTCACCTAGTGCAG,8220 fluorescence intensity (a.u.)
13,AAAAACGGCGACGACACCCAAACCCATCGTCGCTTCCGCGCGGAGTCACCTAGTGCAG,8150 fluorescence intensity (a.u.)
14,GGTGTAAGCGGATAGCGCATCGGGTAGGGATCATTAAGTACGGAGTCACCTAGTGCAG,8440 fluorescence intensity (a.u.)
15,GTCTCATGCAAGACATGGTTTCTTTCTCTTTCCTCATTTACGGAGTCACCTAGTGCAG,8930 fluorescence intensity (a.u.)
16,TCTAGGGTTAGGGTTTCGTGATTTTTGGTTTTTTATTTTTCGGAGTCACCTAGTGCAG,16900 fluorescence intensity (a.u.)
17,CGCAATTGACATTTTATCACACGTTTAATCATTCATCTTACGGAGTCACCTAGTGCAG,8760 fluorescence intensity (a.u.)
18,TGTGTGGTGGTTCTGAGTTGGTGGACGGCGATCTGCAGTCCGGAGTCACCTAGTGCAG,10500 fluorescence intensity (a.u.)
19,AACTTTACTTTTTCTCATAGTGTTGATTAGATATATGTTTCGGAGTCACCTAGTGCAG,10600 fluorescence intensity (a.u.)
20,AATTGGGTTCGAATTTTTCTCTGGTTCGCTTGTGATTTTGCGGAGTCACCTAGTGCAG,8240 fluorescence intensity (a.u.)
21,TAGACCTCTCATACTTATGGTAGCTGCCGGTTGGTTGTCACGGAGTCACCTAGTGCAG,9120 fluorescence intensity (a.u.)

row,Sequence,binding signal
1,TTGGTAGCCTCCCTCGCCGCCGCTTCGCCGCATTTCGGTTCGGAGTCACCTAGTGCAG,8800 fluorescence intensity (a.u.)
2,GTCCAAGTTTGCCTTTCTCACTGGGGAGCGGGTGGGCTGTCGGAGTCACCTAGTGCAG,21000 fluorescence intensity (a.u.)
3,ATTAATGTTGTGTGTTAAAACTTTCTAATGTGTCAGCTACCGGAGTCACCTAGTGCAG,11000 fluorescence intensity (a.u.)
4,AGTGTTTCCCTGCAAAACAAGTTTCACGTTCCTTTTTTTTCGGAGTCACCTAGTGCAG,8770 fluorescence intensity (a.u.)
5,GCTAACATGTTCCGCTGTCTCGCCCATGCTAGGTATCATCCGGAGTCACCTAGTGCAG,10800 fluorescence intensity (a.u.)
6,TTTCTTCCTTTTTGGCCCAATCCCTTTTCTTTTATCTTCTCGGAGTCACCTAGTGCAG,13400 fluorescence intensity (a.u.)
7,TCCATGCGGGACTTAACTGAACATCATCTAATTTTTTTTACGGAGTCACCTAGTGCAG,8990 fluorescence intensity (a.u.)
8,TGTGCACGTCAGTCTGACGCCTCAATCCTTCCCGTGCACACGGAGTCACCTAGTGCAG,9050 fluorescence intensity (a.u.)
9,ATTGGGTTGATGGGAGGTGTTTCTCGGCTTAGAGGGATGGCGGAGTCACCTAGTGCAG,12900 fluorescence intensity (a.u.)
10,GGGGAAATTGTACTCGTAGCTCTGTAAGGGCTGGATCACGCGGAGTCACCTAGTGCAG,9410 fluorescence intensity (a.u.)
11,TGAGGTAGATAGGCGGTGGGATATGTGCGGCCTGCGGGGACGGAGTCACCTAGTGCAG,11300 fluorescence intensity (a.u.)
12,CGTCTCGTCCGCGACACCCCGGCCCCAATTCCAACACGCGCGGAGTCACCTAGTGCAG,9080 fluorescence intensity (a.u.)
13,ACGTTTCTTTTATAGGCATTCAACGAGTAGATCTCTAACCCGGAGTCACCTAGTGCAG,9600 fluorescence intensity (a.u.)
14,CACCAAACATATTTTCGCGCCCAATTGTCGTTTCCGCACGCGGAGTCACCTAGTGCAG,12000 fluorescence intensity (a.u.)
15,CATCCACAACTTCTTTGCCTGCCTGCTGTTCCTTTTAGTTCGGAGTCACCTAGTGCAG,9460 fluorescence intensity (a.u.)
16,AAAGCCCACCATCTTAATTGGCCTCTCACTCCTTTGCTCCCGGAGTCACCTAGTGCAG,9010 fluorescence intensity (a.u.)
17,GCGTTTGGTGATCCATGCTATAGCTTACACTGCTCTATGACGGAGTCACCTAGTGCAG,8100 fluorescence intensity (a.u.)
18,GGTAGCTGCCGTGCTGGGCGATCGGCGTTTGCGTTCGCTCCGGAGTCACCTAGTGCAG,8430 fluorescence intensity (a.u.)
19,AAAATTATTCATGGGTTTTCCCTTTTCTTGCGGTTTTAGACGGAGTCACCTAGTGCAG,9070 fluorescence intensity (a.u.)
20,ATGCTGAAGGCCTTGGTAGGAATAAGTCTATATTGCTTCCCGGAGTCACCTAGTGCAG,11000 fluorescence intensity (a.u.)
21,TCGTCGTTGGTGATTTTGCAAAAACACCCTTCATTTACTTCGGAGTCACCTAGTGCAG,8890 fluorescence intensity (a.u.)

row,Sequence,binding signal
1,GCATTTCATGGGTTCGTAGTTCGTTCGTTGTTTAATTTCCCGGAGTCACCTAGTGCAG,8360 fluorescence intensity (a.u.)
2,AACTTTCGTACACACAAACTTTTAACTTTTTCATCACATCCGGAGTCACCTAGTGCAG,8230 fluorescence intensity (a.u.)
3,CATTGTATTCCTCAGCGTTCATCCTAGTCTTCAAAATCCCCGGAGTCACCTAGTGCAG,8480 fluorescence intensity (a.u.)
4,AGCAAGGTCGTTGTTTTGGTTGATGGCTAAGTTCACCACTCGGAGTCACCTAGTGCAG,10200 fluorescence intensity (a.u.)
5,GTGTGGCATGGTTCAAATTCTCCCTTTTTTTTTTTTCTCTCGGAGTCACCTAGTGCAG,10800 fluorescence intensity (a.u.)
6,ACACGAACTCGGATTGTTAATAATCTTTTACTACTCCTATCGGAGTCACCTAGTGCAG,8090 fluorescence intensity (a.u.)
7,GCTTTTTTTTTTTCTTTCTTTCTTTTTCCCCTTCGGCTTCCGGAGTCACCTAGTGCAG,12500 fluorescence intensity (a.u.)
8,ACCATTAACAAATCAATCCGAGCATTTTCTTTCTTTTGATCGGAGTCACCTAGTGCAG,8060 fluorescence intensity (a.u.)
9,AATAGGGAAGCCCCACGTGTGTTAATTGTCATCGATTTCCCGGAGTCACCTAGTGCAG,9660 fluorescence intensity (a.u.)
10,ACTCTCCCTTTCCCACGTCCTTACCCGCACGAATCGCGAACGGAGTCACCTAGTGCAG,9530 fluorescence intensity (a.u.)
11,TGAATTTTTTTTCGAAACCGAACTCTTCCATCAATTCCTTCGGAGTCACCTAGTGCAG,9450 fluorescence intensity (a.u.)
12,ATGCCAGGATTTCAGTCCAGTCTTGTTCGGTTAATACCTACGGAGTCACCTAGTGCAG,8450 fluorescence intensity (a.u.)
13,ACTCACTCTCACTCACTCGGACTCCTCACCCGCTAGCTACCGGAGTCACCTAGTGCAG,11600 fluorescence intensity (a.u.)
14,GTGTATGATGCCGTTGACTTTTTATCCAACGTTTGACCATCGGAGTCACCTAGTGCAG,38800 fluorescence intensity (a.u.)
15,AATCTCCGTGGCGAGGGTGGGGTCGGAGGTGGTCATGTCGCGGAGTCACCTAGTGCAG,9290 fluorescence intensity (a.u.)
16,TAGTTTGCTGCAACATTAGCATCATATTTCAGTTTGTTGTCGGAGTCACCTAGTGCAG,8340 fluorescence intensity (a.u.)
17,GTTGACTTTTTTTCACATGTTTGACCATTCATCTTATTCACGGAGTCACCTAGTGCAG,13400 fluorescence intensity (a.u.)
18,AATTTTCAGTTGAAAGAAGGATTGGGGTGCGTTTGGTTCTCGGAGTCACCTAGTGCAG,8360 fluorescence intensity (a.u.)
19,TGTATGCATGCTCTGTGCTTTGATATTTTACGTTTTCACACGGAGTCACCTAGTGCAG,8730 fluorescence intensity (a.u.)
20,GGGACTAGGGTTACGACGGCTGTGGGGTGGCTTCACTGATCGGAGTCACCTAGTGCAG,8460 fluorescence intensity (a.u.)
21,CTCATTTTTTTAATGTGATGGTTCTGTATTATCTGATCAACGGAGTCACCTAGTGCAG,8060 fluorescence intensity (a.u.)

# Individual results from the results shown:
# GCATTTCATGGGTTCGTAGTTCGTTCGTTGTTTAATTTCCCGGAGTCACCTAGTGCAG – binding signal: 8360 fluorescence intensity (a.u.)
# AGCAAGGTCGTTGTTTTGGTTGATGGCTAAGTTCACCACTCGGAGTCACCTAGTGCAG – binding signal: 10200 fluorescence intensity (a.u.)

# Continuation:

row,Sequence,binding signal
1,AATCCAACGCCCGGTCCCGCTGCATGTTCCTGCGCTCAGTCGGAGTCACCTAGTGCAG,8850 fluorescence intensity (a.u.)
2,TGTCTTTATGATGTTTGGTTGATTTTGTTTCATCCGATTTCGGAGTCACCTAGTGCAG,9010 fluorescence intensity (a.u.)
3,CACGCACCAAACAACAGGGTGGGTTCAGGATTTGAGATAGCGGAGTCACCTAGTGCAG,8060 fluorescence intensity (a.u.)
4,GAGGAAAGTCGCCTCCTTCGTGTCCCACTTTGTCCATGTACGGAGTCACCTAGTGCAG,8340 fluorescence intensity (a.u.)
5,CCATTAGCCCACTAGATTTTTTGCCACCCACGGCCCAGCCCGGAGTCACCTAGTGCAG,9060 fluorescence intensity (a.u.)
6,ATTCTATTGTTAACGCCGTTGATTTTTAATGTAAGTTTAACGGAGTCACCTAGTGCAG,10500 fluorescence intensity (a.u.)
7,CTCCCATCCTTGCTGAGTTCTTGTGCTGCTTCTTCCACAACGGAGTCACCTAGTGCAG,11100 fluorescence intensity (a.u.)
8,ATTCCTTCCATTGGCTTGCTGCTTCCTGGTACATCCTTTTCGGAGTCACCTAGTGCAG,11300 fluorescence intensity (a.u.)
9,ATCAGGTCAGGCTTCGATCCCCATTCGCTCGTGCTCTCGTCGGAGTCACCTAGTGCAG,8590 fluorescence intensity (a.u.)
10,AGTTGGCTATAGATCTATAGACCGCCTTTTCGCCTGTCTGCGGAGTCACCTAGTGCAG,8930 fluorescence intensity (a.u.)
11,TCCAAATCTCCATCAGCGCTTGCCCAAGGACATCCTCTCACGGAGTCACCTAGTGCAG,9210 fluorescence intensity (a.u.)
12,GTCTACCTCTGCTGCTTATCTGAAATTTCGGAGTCTGAACCGGAGTCACCTAGTGCAG,10400 fluorescence intensity (a.u.)
13,CCCTCCGATCACCGTGCAGCGCAGAATGCCAGAATCTCTCCGGAGTCACCTAGTGCAG,8270 fluorescence intensity (a.u.)
14,TGGAGTACCTTCACTTGACATGTCTTACGGAACAAGTAATCGGAGTCACCTAGTGCAG,8430 fluorescence intensity (a.u.)
15,CACCGCCTCACCTCACCGCCGGCGAGACCACCCACCGCCGCGGAGTCACCTAGTGCAG,8420 fluorescence intensity (a.u.)
16,GTCCCTCGCGCCGTCACCACCTGCTCTGTCTCCTCTCCTTCGGAGTCACCTAGTGCAG,10700 fluorescence intensity (a.u.)
17,AGTTACTAGTATCTCTTTTCCTTTTATTTTTCATTTTTCCCGGAGTCACCTAGTGCAG,9490 fluorescence intensity (a.u.)
18,GCTCCACGCTCAACTTAGATCGCCACCATTGACAGCGAACCGGAGTCACCTAGTGCAG,8160 fluorescence intensity (a.u.)
19,AGTAGCACCACCACCTCGTCGGCCTGTCAAGGCTGATACACGGAGTCACCTAGTGCAG,10900 fluorescence intensity (a.u.)
20,CACACACACACTCTCTCCGCACCAAAACCACTAAAACCAACGGAGTCACCTAGTGCAG,9730 fluorescence intensity (a.u.)
21,TGAATCCATTTTATCTTTTTTTTTCTTATTAAAATTTTTCCGGAGTCACCTAGTGCAG,8110 fluorescence intensity (a.u.)

# Some of the entries so far, with bars between the fields.
row | Sequence | binding signal
5 | CCATTAGCCCACTAGATTTTTTGCCACCCACGGCCCAGCCCGGAGTCACCTAGTGCAG | 9060 fluorescence intensity (a.u.)
6 | ATTCTATTGTTAACGCCGTTGATTTTTAATGTAAGTTTAACGGAGTCACCTAGTGCAG | 10500 fluorescence intensity (a.u.)
7 | CTCCCATCCTTGCTGAGTTCTTGTGCTGCTTCTTCCACAACGGAGTCACCTAGTGCAG | 11100 fluorescence intensity (a.u.)

# — article PMC7819943, “Rice protein-binding microarrays: a tool to detect cis-acting elements near promoter regions in rice”
